{
  "source": "patent US11246477B2",
  "about": "“Fluorescence endoscopic method for visualization of colorectal tissue using fluoroquinolone antibiotics and method for diagnosis of lesions of colorectal tissue using” (POSTECH ACADEMY-INDUSTRY FOUNDATION, priority 2019, dated 2022)",
  "key": {"[1]": {"tested_on": "goblet cells of the colorectal tissue", "assay": "photographing of moxifloxacin-stained colorectal tissue of living mouse ingesting DSS", "format": "in vivo"}, "[2]": {"tested_on": "goblet cells of the colorectal tissue", "assay": "endoscopic photographing of moxifloxacin-stained colorectal tissue of living mouse", "format": "in vivo", "details": "confocal endoscopic microscopy"}, "[3]": {"tested_on": "goblet cells of the colorectal tissue", "assay": "photographing of moxifloxacin-stained colorectal tissue of living mouse", "format": "in vivo"}, "[4]": {"tested_on": "goblet cells of the colorectal tissue", "assay": "photographing of extracted and moxifloxacin-stained colorectal tissue of mouse", "format": "cell-based", "details": "extracted mouse colorectal tissue"}, "[5]": {"assay": "single-photon excitation spectrum and fluorescence emission spectrum of moxifloxacin in the near UV and visible regions", "format": "physicochemical", "details": "two-photon excitation based on 700 nm excitation light"}},
  "note": "At least one compound was matched to its structure with a doubt left.",
  "data": [
    {"compound": "COc1c(N2C[C@@H]3CCCN[C@@H]3C2)c(F)cc2c(=O)c(C(=O)O)cn(C3CC3)c12", "note": "[moxifloxacin]", "values": [
      {"measurement": "fluorescence of stained goblet cells", "setting": "[1]; confocal fluorescence microscopy, FIG. 6(a), 6(a1)", "value": "no light emission from cells"},
      {"measurement": "fluorescence of stained goblet cells", "setting": "[1]; high-magnification fluorescence microscopy, FIG. 6(b), 6(b1)", "value": "no light emission from cells"},
      {"measurement": "appearance of stained goblet cells", "setting": "[2]; living mouse ingesting DDS (colitis), FIG. 7(b1), 7(b2)", "value": "not distinct"},
      {"measurement": "fluorescence of stained goblet cells", "setting": "[2]; normal living mouse, FIG. 7(a1), 7(a2)", "value": "fluorescence-excited and emitted light"},
      {"measurement": "fluorescence of stained goblet cells", "setting": "[3]; confocal fluorescence microscopy, FIG. 5(a), 5(a1)", "value": "fluorescence-excited and emitted light"},
      {"measurement": "fluorescence of stained goblet cells", "setting": "[3]; high-magnification fluorescence microscopy, FIG. 5(b), 5(b1)", "value": "fluorescence-excited and emitted light"},
      {"measurement": "fluorescence of stained goblet cells", "setting": "[4]; confocal fluorescence microscopy, FIG. 4(a), 4(a1)", "value": "fluorescence-excited and emitted light"},
      {"measurement": "fluorescence of stained goblet cells", "setting": "[4]; high-magnification fluorescence microscopy, FIG. 4(b)", "value": "fluorescence-excited and emitted light"},
      {"measurement": "fluorescence intensity at 405 nm compared with two-photon fluorescence intensity", "setting": "[5]", "value": "much higher"}
    ]}
  ]
}
